Data on 63 molecules can be found in PubChem BioAssay AID493014 (National Center for Advancing Translational Sciences (NCATS), 2011).

Some of the results follow. Shown are side measurements of this screen, not its main read-out; they come without a call. Most of these compounds were active or inconclusive in the main read-out, so they are no random draw. The note in brackets gives the kind of curve behind each potency; many fits are weak.

This experiment can be described thus: qHTS Assay to Find Inhibitors of Chronic Active B-Cell Receptor Signaling. The note with it: ABC-DLBCL IkBa-CBG/CBR reporter, luminescence ratio (green luciferase fused to IkBa over red control in TMD8 lymphoma cells), 4 h. In a few lines: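 Doxycycline induced both beetle luciferases in TMD8 lymphoma cells; IKK-driven degradation limits the IkappaBalpha-fused green signal, while red luminescence normalises for cell number and nonspecific effects. Compounds tested up to 46 uM, 4 hrs.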
In general terms: In qHTS, concentration-response curves come from the screen itself.

Where [1] appears, read: measured here: CBR red luminescence, cell number.

For the molecule `Cc1ccc(/C(N)=N/OC(=O)COc2ccccc2Cl)cc1`, under setting [1], the AC50 was 0.731 µM [rising, full curve]. The same measure, in the same setting: with `O=C(O)c1ccc(N2N=C(c3ccccc3)CC2c2ccccc2)cc1` (centres undefined) the figure was 3.55 µM [falling, full curve].

As to `CN(Cc1ccco1)C(=O)CSc1nn2c(=O)c(C(C)(C)C)nnc2s1`, the AC50 under setting [1] was 8.2 µM [falling, single point]. In the case of `CCCCCn1c(-c2ccco2)nc2nc3ccccc3nc21`, the AC50 under setting [1] is 29.1 µM [falling, single point]. On the same count and under the same terms, with `COc1ccccc1-n1c(SC)nc(O)cc1=O` the figure was 0.116 µM [falling, full curve, poor fit]; with `C[C@H]1CN([C@@H](C)CO)C(=O)c2cccc(NC(=O)c3ccc(-c4nccs4)cc3)c2O[C@@H]1CN(C)C(=O)NC1CCCCC1`, 29.1 µM [rising, single point]; with `NC(=S)c1cc2ccc(O)cc2oc1=O`, 1.41 µM [falling, full curve, poor fit]. The same measure, in the same setting: with `C/C(N)=C(/C#N)C(=O)CSc1nc2ccccc2n1CC(C)C` the figure was 12.6 µM [rising, partial curve, poor fit]; with `CCCCC(=O)Nc1cnc(NC(=O)c2cccs2)cc1C`, 22.4 µM [falling, single point]; with `Cc1ccc(C)c(C(=O)CSc2nnnn2C(C)C)c1`, 0.116 µM [rising, full curve, poor fit].

Turning to `Clc1cc(Cl)cc(CN2CCSCC2)c1`, under setting [1], the AC50 is 5.62 µM [falling, single point]. As to `O=C(Nc1nc(-c2cccs2)c(-c2cccs2)s1)C1CCCC1`, the half-maximal activity concentration (AC50) under setting [1] is 2.31 µM [falling, partial curve, poor fit]. The same measure, in the same setting: with `CC(C(=O)Nc1cccc([N+](=O)[O-])c1)N1CCN(C/C=C/c2ccccc2)CC1` (centres undefined) the figure was 29.1 µM [falling, single point]; with `Cc1ccc(Cl)cc1N1CCN(Cc2nc3c(c(=O)[nH]c(=O)n3C)n2CCc2ccccc2)CC1`, 29.1 µM [rising, partial curve, poor fit]. Still for that read-out and setting: with `COc1ccc(-c2noc(CN(C)Cc3ccccc3)n2)cc1` the figure was 35.5 µM [rising, single point].

As for `Cc1cc(C)c2c(NC(=O)CCl)nn(C)c2n1`, under setting [1], the concentration at half-maximal activity (AC50) was 12.6 µM [falling, single point]. As for `CN(C)C1(CNC(=O)Nc2ccccc2)CCCCC1`, the AC50 under setting [1] was 12.6 µM [rising, partial curve, poor fit]. On the same count and under the same terms, with `OC(CNC1CCCCC1)CNC1CCCCC1` the figure was 35.5 µM [falling, single point]; with `N#Cc1nc(-c2ccccc2)oc1NCC1CCCO1` (centres undefined), 7.31 µM [rising, partial curve, poor fit]; with `Cn1c(=O)cc(SCC(=O)NCC2CCCO2)c2ccccc21` (centres undefined), 11.2 µM [rising, partial curve, poor fit].

On to `CCN(CC)S(=O)(=O)c1ccc(C)c(NC(=S)N2CCN(Cc3ccc4c(c3)OCO4)CC2)c1`, for which the AC50 under setting [1] is 17.8 µM [falling, single point]. As to `O=C(CSc1nnc(COc2ccccc2)o1)NC1CC2CCC1C2` (centres undefined), the half-maximal activity concentration (AC50) under setting [1] was 35.5 µM [rising, partial curve, poor fit].

For `CC1(C)Cc2c(c(N3CCCC3)nc3sc4c(N5CCNCC5)ncnc4c23)CO1`, the AC50 under setting [1] is 6.31 µM [rising, partial curve, poor fit]. `CCNc1nc(NCC)nc(N/N=C/c2ccc([N+](=O)[O-])o2)n1`: under setting [1], the AC50 was 18.4 µM [rising, partial curve, poor fit]. Still for that read-out and setting: with `COc1cccc(C2/C(=C(/O)c3cnn(-c4ccccc4)c3C)C(=O)C(=O)N2CCN(C)C)c1` (centres undefined) the figure was 4.61 µM [rising, full curve, poor fit]; with `CN(CCC#N)C(=O)COC(=O)c1cccnc1Nc1ccccc1F`, 11.2 µM [falling, partial curve]; with `COc1ccc(C2=CC(=O)OC3(CCCCC3)O2)cc1`, 20 µM [rising, partial curve, poor fit]. On the same count and under the same terms, with `O=C(COc1ccc(Br)cc1Br)NC(=S)Nc1cccc(CO)c1` the figure was 14.6 µM [rising, partial curve]. The same measure, in the same setting: with `CCN(C(=O)COC(=O)c1nc(Cl)ccc1Cl)C1CCS(=O)(=O)C1` (centres undefined) the figure was 20.6 µM [falling, partial curve, poor fit]; with `Cc1cc(C(=O)N/N=C/c2c(C)nn(-c3ccccc3)c2C)c(C)o1`, 3.55 µM [falling, partial curve, poor fit]; with `CCCn1c(SCC(=O)Nc2nc(C)c(C(=O)OC)s2)nnc1C(C)C`, 1.78 µM [falling, partial curve]. For `C#Cc1ccc(CN2CCCC(C(=O)Nc3ccccc3Oc3cccnc3)C2)cc1` (centres undefined), under setting [1], the AC50 is 17.8 µM [falling, single point]. Same read-out and setting: with `Cc1nnc(N/N=C/c2cccs2)[nH]c1=O` the figure was 7.08 µM [falling, partial curve, poor fit]; with `O=C1CC2(CCN(C(=O)c3ccccc3Cl)CC2)Oc2ccccc21`, 5.8 µM [falling, partial curve, poor fit]; with `CCO[C@H]1OC(C(=O)NCc2ccccc2)=C[C@@H](c2coc3ccccc3c2=O)[C@@H]1CCCO`, 0.1 µM [falling, full curve, poor fit]. On to `N#Cc1cccc(Cn2nnc(-c3ccccc3)n2)c1`, for which the AC50 under setting [1] is 13 µM [rising, partial curve]. Same read-out and setting: with `Cc1[nH][nH]c(=O)c1C` the figure was 2.59 µM [rising, full curve, poor fit]; with `CC(C)Cc1cc(-c2ccco2)c(C#N)c(N)n1`, 12.6 µM [rising, partial curve, poor fit].

For the molecule `CC(C)Cc1nnc(NC(=O)CSc2ncn[nH]2)s1`, the AC50 under setting [1] is 14.6 µM [falling, single point]. The same measure, in the same setting: with `Cc1ccc(NC(=O)C2CCN(S(=O)(=O)c3ccc4c(c3)CC(C)N4C(=O)C3CCC3)CC2)nc1` (centres undefined) the figure was 14.1 µM [falling, partial curve, poor fit]. On the same count and under the same terms, with `COc1ccc(OC)c(NC(=O)N2CCCc3ccccc32)c1` the figure was 0.562 µM [falling, full curve, poor fit]; with `CCOC(=O)N1CCN(C(=O)COC(=O)CNC(=O)c2ccc(C)cc2)CC1`, 7.31 µM [rising, partial curve]; with `O=C1OCCC1Sc1nc(-c2ccccc2)cs1` (centres undefined), 29.1 µM [rising, single point].

As to `O=C(NNC(=O)C1CC1c1ccccc1)Nc1ccccc1` (centres undefined), the concentration at half-maximal activity (AC50) under setting [1] is 29.1 µM [rising, single point]. Still for that read-out and setting: with `Cc1noc(NS(=O)(=O)c2ccc(NC(=O)/C=C/c3ccccc3)cc2)c1C` the figure was 5.17 µM [falling, partial curve, poor fit]. Still for that read-out and setting: with `COc1cccc(C2/C(=C(/O)c3ccccc3)C(=O)C(=O)N2CCCC(=O)O)c1` (centres undefined) the figure was 20 µM [rising, single point]; with `Cc1nc([N+](=O)[O-])c(N2CCOCC2)n1Cc1ccccc1`, 10 µM [falling, partial curve, poor fit]. The same measure, in the same setting: with `COc1ccc(-c2ccc(/C=N/NC(=O)Cc3nnc(N)s3)o2)cc1Cl` the figure was 25.1 µM [rising, single point]. Take `CC(C)[C@H](NC(=O)N1CCn2c1nc1ccccc12)C(=O)N[C@H](C(=O)O)c1ccccc1`: the concentration at half-maximal activity (AC50) under setting [1] was 2.24 µM [falling, full curve, poor fit]. In the case of `O=C(COc1ccccc1C(=O)O)Nc1nc2ccc([N+](=O)[O-])cc2s1`, the AC50 under setting [1] was 0.708 µM [falling, full curve].

In the case of `CC(=O)c1ccc(C(=O)Nc2ccc3c(c2)C(=O)NC3=O)cc1`, the AC50 under setting [1] is 0.316 µM [falling, partial curve, poor fit]. The same measure, in the same setting: with `COc1ccc(CNC(=O)N2CCN(c3ccc(F)cc3)CC2)cc1Cl` the figure was 3.55 µM [falling, single point]; with `O=C(CCN1C(=O)/C(=C/c2ccccc2)SC1=S)NNC(=O)c1cccnc1`, 32.6 µM [falling, single point]; with `C=CCC[C@@H](Cc1ccc(F)cc1)C(=O)OC[C@@H](Cc1c[nH]c2ccccc12)NC(=O)[C@@H](CC=C)CC(=O)N[C@H](CO)Cc1ccccc1`, 20.6 µM [falling, partial curve, poor fit]. Regarding `O=C(c1nnsc1S(=O)c1ccc(Cl)cc1)N1CCOCC1` (centres undefined), under setting [1], the AC50 was 2.82 µM [falling, full curve, poor fit]. On the same count and under the same terms, with `C=CCn1c(SCC(=O)N2CCc3ccccc3C2)nc2sc(CC)cc2c1=O` the figure was 18.4 µM [falling, partial curve]; with `Cc1cc(OCC(=O)NC2CCCCC2)ccc1Cl`, 29.1 µM [falling, single point]. Still for that read-out and setting: with `COc1cccc(NC(=O)[C@@H]2CCCN2S(=O)(=O)c2cccc3cccnc23)c1` the figure was 4.11 µM [rising, single point].

For the molecule `C=CCC(CC(O)COCCC)C(=O)NNC(=S)Nc1ccccc1` (centres undefined), the half-maximal activity concentration (AC50) is, setting by setting: under setting [1], 17.8 µM [falling, partial curve]; (measured here: IkBa-CBG green luminescence) 4.47 µM [falling, full curve]. As to `CCOC(=O)C1=C(C)OC(N)=C(C#N)C1c1cc2c(cc1Br)OCO2` (centres undefined), the AC50 under setting [1] was 20 µM [falling, single point].

On to `CCOC(=O)CSc1nnc(NC(=O)c2cc([N+](=O)[O-])cc([N+](=O)[O-])c2)s1`, for which the AC50 under setting [1] is 0.651 µM [falling, full curve].

`C[C@H](CO)N1C[C@H](C)[C@@H](CN(C)C(=O)Nc2ccccc2)Oc2c(NC(=O)C3CCCCC3)cccc2C1=O`: under setting [1], the AC50 is 29.1 µM [rising, single point]. Regarding `O=C(CSc1nc(-c2ccccc2)cn1-c1ccccc1F)Nc1ccc(F)cc1`, the AC50 under setting [1] is 3.16 µM [falling, partial curve].

Usually AC50 stands for the concentration at which the activity in the assay is half-maximal.
